Results reported in the supplement of paper PMC12823440, “Inhibitors supercharge kinase turnover through native proteolytic circuits” (Nature, 2025).
This is one part of the list. The calls rarely recur for the same compound in another form.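 In K562 cells expressing nanoluciferase-fused kinases, luminescence was recorded at 4 h intervals between 2 and 18 h, normalized as percent of control with DMSO at 100% and a positive control at 0%. A significant (2 sigma) signal drop marks a time point as decreased. The authors' rule for a hit is not shown and takes in more than the number of time points.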

Sequences of proteins named here, by UniProt entry; tags and fusion partners are left off. A change or cut given only in a name is not applied to a line headed by its entry.
UniProt O15530: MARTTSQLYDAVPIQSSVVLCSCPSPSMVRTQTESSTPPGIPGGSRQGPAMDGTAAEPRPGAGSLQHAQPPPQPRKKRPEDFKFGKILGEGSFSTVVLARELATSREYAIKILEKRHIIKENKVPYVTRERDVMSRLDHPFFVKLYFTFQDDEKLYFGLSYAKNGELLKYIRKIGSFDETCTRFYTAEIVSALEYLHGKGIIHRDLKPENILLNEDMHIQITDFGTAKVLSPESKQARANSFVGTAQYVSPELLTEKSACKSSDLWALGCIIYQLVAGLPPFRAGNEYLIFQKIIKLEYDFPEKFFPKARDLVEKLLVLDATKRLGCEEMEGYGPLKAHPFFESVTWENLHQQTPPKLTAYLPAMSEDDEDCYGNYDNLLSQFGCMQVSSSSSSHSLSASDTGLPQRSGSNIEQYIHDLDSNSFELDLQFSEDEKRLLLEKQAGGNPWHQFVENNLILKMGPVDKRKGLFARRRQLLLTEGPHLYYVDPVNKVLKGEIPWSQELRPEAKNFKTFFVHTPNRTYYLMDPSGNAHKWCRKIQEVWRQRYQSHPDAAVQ
UniProt P42356, whole entry, looked up: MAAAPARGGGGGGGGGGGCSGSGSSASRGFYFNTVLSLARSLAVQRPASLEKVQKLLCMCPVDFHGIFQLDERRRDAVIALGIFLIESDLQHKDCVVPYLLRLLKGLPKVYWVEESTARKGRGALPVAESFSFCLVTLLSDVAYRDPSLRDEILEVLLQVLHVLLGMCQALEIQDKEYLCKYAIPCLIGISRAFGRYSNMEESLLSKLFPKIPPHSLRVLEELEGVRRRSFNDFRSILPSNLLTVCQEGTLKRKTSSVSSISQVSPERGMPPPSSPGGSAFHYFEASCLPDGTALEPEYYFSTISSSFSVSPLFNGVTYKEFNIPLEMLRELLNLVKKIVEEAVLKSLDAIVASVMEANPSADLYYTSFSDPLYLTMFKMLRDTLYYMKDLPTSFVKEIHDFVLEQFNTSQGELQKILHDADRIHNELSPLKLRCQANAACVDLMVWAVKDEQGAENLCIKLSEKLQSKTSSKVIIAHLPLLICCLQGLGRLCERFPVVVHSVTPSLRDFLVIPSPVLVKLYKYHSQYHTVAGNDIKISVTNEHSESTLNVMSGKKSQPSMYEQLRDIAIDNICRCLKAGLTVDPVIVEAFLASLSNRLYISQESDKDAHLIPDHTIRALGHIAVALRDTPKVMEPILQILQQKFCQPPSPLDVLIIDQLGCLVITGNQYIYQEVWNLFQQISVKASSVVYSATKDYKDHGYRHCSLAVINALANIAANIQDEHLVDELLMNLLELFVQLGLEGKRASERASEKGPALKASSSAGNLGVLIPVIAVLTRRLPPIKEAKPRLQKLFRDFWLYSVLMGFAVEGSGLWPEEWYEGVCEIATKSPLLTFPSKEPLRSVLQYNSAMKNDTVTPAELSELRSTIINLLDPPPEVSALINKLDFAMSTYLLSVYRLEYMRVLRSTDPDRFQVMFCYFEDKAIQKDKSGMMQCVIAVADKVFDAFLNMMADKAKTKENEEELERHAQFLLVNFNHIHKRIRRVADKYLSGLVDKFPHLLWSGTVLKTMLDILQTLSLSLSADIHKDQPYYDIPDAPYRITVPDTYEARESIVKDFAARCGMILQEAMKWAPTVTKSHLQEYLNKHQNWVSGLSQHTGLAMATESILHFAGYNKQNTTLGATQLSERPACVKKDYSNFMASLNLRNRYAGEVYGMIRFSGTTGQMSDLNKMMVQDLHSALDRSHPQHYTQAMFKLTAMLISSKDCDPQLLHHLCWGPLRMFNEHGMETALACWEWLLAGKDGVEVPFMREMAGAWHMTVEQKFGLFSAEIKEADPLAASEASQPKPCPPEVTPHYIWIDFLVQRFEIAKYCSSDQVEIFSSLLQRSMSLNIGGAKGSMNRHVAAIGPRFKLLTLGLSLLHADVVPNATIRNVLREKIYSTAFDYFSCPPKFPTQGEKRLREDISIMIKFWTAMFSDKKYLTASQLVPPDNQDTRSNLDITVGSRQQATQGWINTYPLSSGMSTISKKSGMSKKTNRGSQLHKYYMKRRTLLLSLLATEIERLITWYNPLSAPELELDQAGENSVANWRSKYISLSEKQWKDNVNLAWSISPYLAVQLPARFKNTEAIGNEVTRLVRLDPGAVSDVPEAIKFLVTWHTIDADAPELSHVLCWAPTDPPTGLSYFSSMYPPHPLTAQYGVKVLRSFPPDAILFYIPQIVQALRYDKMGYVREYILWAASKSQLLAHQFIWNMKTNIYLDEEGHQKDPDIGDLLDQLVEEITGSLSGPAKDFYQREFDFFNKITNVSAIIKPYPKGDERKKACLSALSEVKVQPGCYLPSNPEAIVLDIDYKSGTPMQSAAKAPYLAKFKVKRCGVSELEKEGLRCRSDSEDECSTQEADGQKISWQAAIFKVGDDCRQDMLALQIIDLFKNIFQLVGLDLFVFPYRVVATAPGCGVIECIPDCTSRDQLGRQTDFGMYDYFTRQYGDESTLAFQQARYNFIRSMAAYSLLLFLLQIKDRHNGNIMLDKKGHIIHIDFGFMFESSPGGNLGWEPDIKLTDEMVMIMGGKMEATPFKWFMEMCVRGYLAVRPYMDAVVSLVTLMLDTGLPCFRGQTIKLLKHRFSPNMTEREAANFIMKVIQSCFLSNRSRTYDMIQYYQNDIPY
UniProt Q13131: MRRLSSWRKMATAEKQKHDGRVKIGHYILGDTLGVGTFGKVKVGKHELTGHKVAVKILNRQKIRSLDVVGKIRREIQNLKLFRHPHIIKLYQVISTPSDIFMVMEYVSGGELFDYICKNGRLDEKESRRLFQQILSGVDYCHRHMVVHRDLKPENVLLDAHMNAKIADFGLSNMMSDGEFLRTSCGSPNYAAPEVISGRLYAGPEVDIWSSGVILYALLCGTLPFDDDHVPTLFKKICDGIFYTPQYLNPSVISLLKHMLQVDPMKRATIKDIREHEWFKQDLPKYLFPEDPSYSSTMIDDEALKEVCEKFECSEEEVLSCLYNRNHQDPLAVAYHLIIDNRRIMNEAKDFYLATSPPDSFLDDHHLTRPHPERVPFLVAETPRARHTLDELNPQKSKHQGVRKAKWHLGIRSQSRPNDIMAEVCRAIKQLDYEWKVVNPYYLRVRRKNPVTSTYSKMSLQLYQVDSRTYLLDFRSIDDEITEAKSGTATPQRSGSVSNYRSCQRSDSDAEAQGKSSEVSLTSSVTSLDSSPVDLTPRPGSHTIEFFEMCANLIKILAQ
UniProt Q05397, whole entry, looked up: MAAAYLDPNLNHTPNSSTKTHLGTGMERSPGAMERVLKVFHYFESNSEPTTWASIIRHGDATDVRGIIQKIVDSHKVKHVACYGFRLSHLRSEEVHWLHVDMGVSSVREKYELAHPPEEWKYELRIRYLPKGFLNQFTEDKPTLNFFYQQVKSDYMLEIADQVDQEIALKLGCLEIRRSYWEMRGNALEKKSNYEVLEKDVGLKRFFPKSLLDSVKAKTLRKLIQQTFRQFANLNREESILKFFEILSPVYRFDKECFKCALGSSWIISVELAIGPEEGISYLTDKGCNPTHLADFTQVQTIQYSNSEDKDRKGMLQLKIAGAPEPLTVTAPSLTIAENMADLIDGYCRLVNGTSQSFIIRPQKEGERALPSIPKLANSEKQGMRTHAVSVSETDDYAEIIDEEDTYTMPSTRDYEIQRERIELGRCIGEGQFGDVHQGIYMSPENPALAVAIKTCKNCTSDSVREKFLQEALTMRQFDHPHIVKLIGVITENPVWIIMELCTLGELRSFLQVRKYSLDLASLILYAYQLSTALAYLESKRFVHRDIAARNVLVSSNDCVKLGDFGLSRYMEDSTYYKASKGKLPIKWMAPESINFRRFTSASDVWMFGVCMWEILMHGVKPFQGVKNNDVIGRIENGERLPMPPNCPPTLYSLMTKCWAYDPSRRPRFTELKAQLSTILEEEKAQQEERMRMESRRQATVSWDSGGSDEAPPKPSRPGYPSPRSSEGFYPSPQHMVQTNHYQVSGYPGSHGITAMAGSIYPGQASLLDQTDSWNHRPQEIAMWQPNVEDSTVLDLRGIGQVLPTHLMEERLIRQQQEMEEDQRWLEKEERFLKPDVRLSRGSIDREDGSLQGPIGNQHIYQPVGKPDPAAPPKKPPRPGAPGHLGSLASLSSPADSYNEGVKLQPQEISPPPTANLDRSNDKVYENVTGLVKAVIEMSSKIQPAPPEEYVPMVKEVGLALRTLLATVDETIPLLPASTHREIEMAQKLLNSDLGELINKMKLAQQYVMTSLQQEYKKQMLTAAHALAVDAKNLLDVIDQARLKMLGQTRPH
UniProt Q9BRS2: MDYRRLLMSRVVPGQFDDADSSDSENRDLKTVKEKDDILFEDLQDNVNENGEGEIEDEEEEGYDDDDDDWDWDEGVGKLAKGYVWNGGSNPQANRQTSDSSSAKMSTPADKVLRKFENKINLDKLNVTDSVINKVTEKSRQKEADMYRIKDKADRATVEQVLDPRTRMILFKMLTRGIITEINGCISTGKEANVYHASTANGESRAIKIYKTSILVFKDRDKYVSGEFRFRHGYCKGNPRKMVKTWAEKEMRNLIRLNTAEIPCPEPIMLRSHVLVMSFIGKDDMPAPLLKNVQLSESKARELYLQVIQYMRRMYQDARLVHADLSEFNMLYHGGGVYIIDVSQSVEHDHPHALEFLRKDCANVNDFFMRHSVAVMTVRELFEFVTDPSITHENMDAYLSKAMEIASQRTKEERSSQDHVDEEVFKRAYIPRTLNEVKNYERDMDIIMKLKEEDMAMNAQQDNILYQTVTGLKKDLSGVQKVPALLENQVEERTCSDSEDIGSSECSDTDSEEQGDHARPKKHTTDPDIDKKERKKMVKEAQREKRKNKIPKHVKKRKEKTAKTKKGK
UniProt Q13546: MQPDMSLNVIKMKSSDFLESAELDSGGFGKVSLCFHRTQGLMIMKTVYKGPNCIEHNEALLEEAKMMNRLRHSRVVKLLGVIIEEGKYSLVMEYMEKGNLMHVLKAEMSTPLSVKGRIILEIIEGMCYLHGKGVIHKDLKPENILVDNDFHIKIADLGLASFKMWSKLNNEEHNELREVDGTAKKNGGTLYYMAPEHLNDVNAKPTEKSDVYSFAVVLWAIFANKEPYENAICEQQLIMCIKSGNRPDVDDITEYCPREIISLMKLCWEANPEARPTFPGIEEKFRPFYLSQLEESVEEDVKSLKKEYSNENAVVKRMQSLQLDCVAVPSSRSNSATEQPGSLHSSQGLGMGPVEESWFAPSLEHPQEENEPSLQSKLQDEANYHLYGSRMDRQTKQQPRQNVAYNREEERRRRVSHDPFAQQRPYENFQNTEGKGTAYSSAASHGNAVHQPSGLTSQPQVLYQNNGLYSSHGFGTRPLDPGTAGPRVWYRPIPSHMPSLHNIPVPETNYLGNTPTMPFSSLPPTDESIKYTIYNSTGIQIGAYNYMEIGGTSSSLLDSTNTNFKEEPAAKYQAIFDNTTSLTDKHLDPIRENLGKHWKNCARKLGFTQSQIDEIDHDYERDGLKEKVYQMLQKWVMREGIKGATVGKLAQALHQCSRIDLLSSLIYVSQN
UniProt Q9NYA1, whole entry: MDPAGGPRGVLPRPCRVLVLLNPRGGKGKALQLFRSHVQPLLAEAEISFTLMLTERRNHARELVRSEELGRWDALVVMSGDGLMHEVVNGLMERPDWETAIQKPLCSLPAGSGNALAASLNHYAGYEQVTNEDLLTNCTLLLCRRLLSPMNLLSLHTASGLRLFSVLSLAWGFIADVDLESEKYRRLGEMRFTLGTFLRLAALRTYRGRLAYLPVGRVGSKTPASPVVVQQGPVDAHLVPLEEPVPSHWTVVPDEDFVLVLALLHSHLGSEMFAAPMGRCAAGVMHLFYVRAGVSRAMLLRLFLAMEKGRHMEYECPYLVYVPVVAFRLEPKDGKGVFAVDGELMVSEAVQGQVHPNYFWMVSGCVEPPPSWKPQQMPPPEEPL

Key:
Test in all cases: kinase-Nluc reporter destabilization hit call (1 = scored as downregulated) (binary); higher = compound decreases kinase abundance
Details in all cases: K562; 2-18 h
PDPK1 = PDPK1 (UniProt O15530)
PIK4CA = PIK4CA (UniProt P42356)
PIK4CB = PIK4CB (UniProt Q9UBF8)
PLK1 = PLK1 (UniProt P53350)
PRKAA1 = PRKAA1 (UniProt Q13131)
PRKCA = PRKCA (UniProt P17252)
PTK2 = PTK2 (UniProt Q05397)
PTK2B = PTK2B (UniProt Q14289)
RAF1 = RAF1 (UniProt P04049)
[1] = biological target: RAF1_S257L (clone: RAF1_mut) (UniProt P04049)
RET = RET (UniProt P07949)
[2] = biological target: RET_M918T (clone: RET_mut) (UniProt P07949)
RIOK1 = RIOK1 (UniProt Q9BRS2)
RIPK1 = RIPK1 (UniProt Q13546)
RIPK2 = RIPK2 (UniProt O43353)
ROR2 = ROR2 (UniProt Q01974)
RPS6KA1 = RPS6KA1 (UniProt Q15418)
SPHK1 = SPHK1 (UniProt Q9NYA1)
SRC = SRC (UniProt P12931)
STK24 = STK24 (UniProt Q9Y6E0)

| SMILES | kinase-Nluc reporter destabilization hit call (PDPK1) | kinase-Nluc reporter destabilization hit call (PIK4CA) | kinase-Nluc reporter destabilization hit call (PIK4CB) | kinase-Nluc reporter destabilization hit call (PLK1) | kinase-Nluc reporter destabilization hit call (PRKAA1) | kinase-Nluc reporter destabilization hit call (PRKCA) | kinase-Nluc reporter destabilization hit call (PTK2) | kinase-Nluc reporter destabilization hit call (PTK2B) | kinase-Nluc reporter destabilization hit call (RAF1) | kinase-Nluc reporter destabilization hit call [1] | kinase-Nluc reporter destabilization hit call (RET) | kinase-Nluc reporter destabilization hit call [2] | kinase-Nluc reporter destabilization hit call (RIOK1) | kinase-Nluc reporter destabilization hit call (RIPK1) | kinase-Nluc reporter destabilization hit call (RIPK2) | kinase-Nluc reporter destabilization hit call (ROR2) | kinase-Nluc reporter destabilization hit call (RPS6KA1) | kinase-Nluc reporter destabilization hit call (SPHK1) | kinase-Nluc reporter destabilization hit call (SRC) | kinase-Nluc reporter destabilization hit call (STK24) |
| --- | --- | --- | --- | --- | --- | --- | --- | --- | --- | --- | --- | --- | --- | --- | --- | --- | --- | --- | --- | --- |
| COc1cc(N2CCOCC2)ccc1NC(=O)c1csc(-c2cccnc2)n1 [IRAK inhibitor 6] (10 µM) | inactive: 0 | inactive: 0 | inactive: 0 | inactive: 0 | inactive: 0 | inactive: 0 | inactive: 0 | inactive: 0 | inactive: 0 | inactive: 0 | inactive: 0 | inactive: 0 | inactive: 0 | inactive: 0 | inactive: 0 | inactive: 0 | inactive: 0 | inactive: 0 | inactive: 0 | inactive: 0 |
| CCN(CC)c1ccc2cc(-c3nc4cc(C)ccc4o3)c(=O)oc2c1 (10 µM) | inactive: 0 | inactive: 0 | inactive: 0 | inactive: 0 | inactive: 0 | inactive: 0 | inactive: 0 | inactive: 0 | inactive: 0 | inactive: 0 | inactive: 0 | inactive: 0 | inactive: 0 | inactive: 0 | inactive: 0 | inactive: 0 | inactive: 0 | inactive: 0 | inactive: 0 | inactive: 0 |
| O=C1NC(=O)C(c2cnc3ccccn23)=C1c1cn2c3c(cc(F)cc13)CNCC2 [GSK-3 inhibitor 1] (2.5 µM) | inactive: 0 | inactive: 0 | inactive: 0 | inactive: 0 | inactive: 0 | inactive: 0 | inactive: 0 | inactive: 0 | inactive: 0 | inactive: 0 | inactive: 0 | inactive: 0 | inactive: 0 | inactive: 0 | inactive: 0 | inactive: 0 | inactive: 0 | inactive: 0 | inactive: 0 | inactive: 0 |
| Cn1ncc2cc(-c3cnc(N)c(Cl)c3N3CCC4(CCNC4=O)CC3)ccc21 (10 µM) | inactive: 0 | inactive: 0 | inactive: 0 | inactive: 0 | inactive: 0 | inactive: 0 | inactive: 0 | inactive: 0 | inactive: 0 | inactive: 0 | inactive: 0 | inactive: 0 | inactive: 0 | inactive: 0 | inactive: 0 | inactive: 0 | inactive: 0 | inactive: 0 | inactive: 0 | inactive: 0 |
| Nc1c(C(=O)NCc2ccc(C(=O)NCCCC3CCCCC3)cc2)cnn1-c1ccccc1 (2.5 µM) | inactive: 0 | inactive: 0 | inactive: 0 | inactive: 0 | inactive: 0 | inactive: 0 | inactive: 0 | inactive: 0 | inactive: 0 | inactive: 0 | inactive: 0 | inactive: 0 | inactive: 0 | inactive: 0 | inactive: 0 | inactive: 0 | inactive: 0 | inactive: 0 | inactive: 0 | inactive: 0 |
| O=c1cc(N2CCOCC2)nc2c3ccccc3ccn12 [Compound 401] (10 µM) | inactive: 0 | inactive: 0 | inactive: 0 | inactive: 0 | inactive: 0 | inactive: 0 | inactive: 0 | inactive: 0 | inactive: 0 | active: 1 | inactive: 0 | inactive: 0 | inactive: 0 | inactive: 0 | inactive: 0 | inactive: 0 | inactive: 0 | inactive: 0 | inactive: 0 | inactive: 0 |
| COCCNc1cc(NC(=O)N2CCCc3cc(CN4CCN(C)CC4=O)c(C=O)nc32)ncc1C#N [Roblitinib] (10 µM) | inactive: 0 | inactive: 0 | inactive: 0 | inactive: 0 | inactive: 0 | inactive: 0 | inactive: 0 | inactive: 0 | inactive: 0 | inactive: 0 | inactive: 0 | inactive: 0 | inactive: 0 | inactive: 0 | inactive: 0 | inactive: 0 | inactive: 0 | inactive: 0 | inactive: 0 | inactive: 0 |
| CC(=O)c1c(C)c2cnc(Nc3ccc(N4CCN(C(=O)CNc5cccc6c5C(=O)N(C5CCC(=O)NC5=O)C6=O)CC4)cn3)nc2n(C2CCCC2)c1=O (stereo not given) (10 µM) | inactive: 0 | inactive: 0 | inactive: 0 | inactive: 0 | inactive: 0 | inactive: 0 | inactive: 0 | inactive: 0 | inactive: 0 | inactive: 0 | inactive: 0 | inactive: 0 | inactive: 0 | inactive: 0 | inactive: 0 | inactive: 0 | inactive: 0 | inactive: 0 | inactive: 0 | inactive: 0 |
| CC1(C)Cc2c(sc(NC(=S)NC(=O)c3ccccc3)c2C(=O)O)CO1 (10 µM) | inactive: 0 | inactive: 0 | inactive: 0 | inactive: 0 | inactive: 0 | inactive: 0 | inactive: 0 | inactive: 0 | inactive: 0 | inactive: 0 | inactive: 0 | inactive: 0 | inactive: 0 | inactive: 0 | inactive: 0 | inactive: 0 | inactive: 0 | inactive: 0 | inactive: 0 | inactive: 0 |
